# In patent US5238930A, “Alkenoic acid compounds for mechanism-based inactivation of dehydropeptidase activity” (Board of Governors of Wayne State University, priority 1992, dated 1993):
# At least one compound was matched to its structure with a doubt left.
# Target: T1, porcine dehydropeptidase I (Sus scrofa, UniProt P22412)
# T1 construct: Renal dipeptidase from porcine kidney was purified by a slight modification of the literature report; from tissue; host or cells: porcine kidney
# T1 sequence (P22412 17-409): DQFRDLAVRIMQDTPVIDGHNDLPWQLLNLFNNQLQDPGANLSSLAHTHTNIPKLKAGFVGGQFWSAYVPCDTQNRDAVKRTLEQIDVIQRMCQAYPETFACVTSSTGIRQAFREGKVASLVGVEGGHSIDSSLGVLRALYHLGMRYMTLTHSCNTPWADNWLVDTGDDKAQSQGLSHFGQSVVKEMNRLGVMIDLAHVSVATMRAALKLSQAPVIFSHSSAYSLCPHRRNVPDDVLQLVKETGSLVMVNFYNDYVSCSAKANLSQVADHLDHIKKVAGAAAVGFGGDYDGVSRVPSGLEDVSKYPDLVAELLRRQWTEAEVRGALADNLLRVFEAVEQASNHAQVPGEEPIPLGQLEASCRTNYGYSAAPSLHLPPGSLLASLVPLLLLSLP
# Assay: Kinetic analysis of interaction (turnover and inactivation) with porcine renal dipeptidase (dehydropeptidase I)
# Type: biochemical
# Source text: Km is the Michaelis […] for the turnover, and Ki is the reversible inhibitor constant for the formation of the EI complex. The parameters Kcat and Kinact are first-order rate constant for enzymic turnover and inactivation, respectively. The partition ratio is defined as kcat divided by kinact (i.e., kcat/ kinact).
# Renal dipeptidase from porcine kidney was purified by a slight modification of the literature report (Biochem. J. 257, 361 (1989)). The spectrophotometric assay of renal dipeptidase is carried out according to the method of Campbell et al. (Methods Enzymol. 19, 722 (1970)), using glycinyldehydrophenylalanine as substrate. The substrate was synthesized according to the literature report (Synthesis Commun., 234 (1982)).
# The relevant kinetic parameters for interactions of I and III with porcine dehydropeptidase I are given below.
compound,measurement,setting,value
"C=C(NC(=O)CC#N)C(=O)O [III, 2-Cyanoacetamidoacrylic Acid]","inactivation of dehydropeptidase, overall result in words",conclusion from the kinetic table,very effective inactivators
same,kcat/kinact (partition ratio),"porcine dehydropeptidase I, kcat divided by kinact",55 ± 2
